Publication doi:10.1101/643494
No constants are given. Whether binding was seen depends on the method and setting. For some assays here: Binding calls can cover weak binding; strength is not graded here. For some assays here: In cells and extracts the contact can be indirect. Where a sequence is shown, tags or fusion partners need not be part of it.

By UniProt entry, the sequences of proteins in these tests, tags left out. Where a name states a change or a piece, a line headed by the entry shows the natural chain unless it says otherwise.
UniProt Q9C5K8: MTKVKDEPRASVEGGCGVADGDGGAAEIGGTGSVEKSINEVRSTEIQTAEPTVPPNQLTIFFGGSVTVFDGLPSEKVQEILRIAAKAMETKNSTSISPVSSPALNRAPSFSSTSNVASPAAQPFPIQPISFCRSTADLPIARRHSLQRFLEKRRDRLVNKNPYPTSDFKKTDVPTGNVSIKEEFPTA
UniProt Q9C9E3: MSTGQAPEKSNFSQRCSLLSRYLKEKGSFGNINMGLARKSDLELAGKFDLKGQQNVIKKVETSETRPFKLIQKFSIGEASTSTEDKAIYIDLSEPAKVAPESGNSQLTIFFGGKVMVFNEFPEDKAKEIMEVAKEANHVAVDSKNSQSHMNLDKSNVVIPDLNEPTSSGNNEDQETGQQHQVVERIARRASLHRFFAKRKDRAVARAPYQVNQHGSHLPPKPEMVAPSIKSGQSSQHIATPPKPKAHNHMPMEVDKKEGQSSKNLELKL
UniProt Q9S7M2: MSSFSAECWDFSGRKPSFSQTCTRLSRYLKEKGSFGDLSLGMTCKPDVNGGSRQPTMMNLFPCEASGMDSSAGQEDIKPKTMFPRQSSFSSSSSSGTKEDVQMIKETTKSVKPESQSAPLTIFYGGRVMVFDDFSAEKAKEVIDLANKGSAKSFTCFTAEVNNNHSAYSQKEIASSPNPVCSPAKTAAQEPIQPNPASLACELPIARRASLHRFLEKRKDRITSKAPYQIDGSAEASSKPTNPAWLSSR
UniProt Q9LMA8: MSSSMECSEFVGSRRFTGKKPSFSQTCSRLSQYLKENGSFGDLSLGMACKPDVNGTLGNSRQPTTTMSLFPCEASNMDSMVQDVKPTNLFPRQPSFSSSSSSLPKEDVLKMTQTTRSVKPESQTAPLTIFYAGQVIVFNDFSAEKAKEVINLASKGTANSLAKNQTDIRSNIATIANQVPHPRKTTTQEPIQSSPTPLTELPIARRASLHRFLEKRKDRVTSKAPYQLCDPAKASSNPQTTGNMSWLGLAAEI
UniProt Q9FIP9: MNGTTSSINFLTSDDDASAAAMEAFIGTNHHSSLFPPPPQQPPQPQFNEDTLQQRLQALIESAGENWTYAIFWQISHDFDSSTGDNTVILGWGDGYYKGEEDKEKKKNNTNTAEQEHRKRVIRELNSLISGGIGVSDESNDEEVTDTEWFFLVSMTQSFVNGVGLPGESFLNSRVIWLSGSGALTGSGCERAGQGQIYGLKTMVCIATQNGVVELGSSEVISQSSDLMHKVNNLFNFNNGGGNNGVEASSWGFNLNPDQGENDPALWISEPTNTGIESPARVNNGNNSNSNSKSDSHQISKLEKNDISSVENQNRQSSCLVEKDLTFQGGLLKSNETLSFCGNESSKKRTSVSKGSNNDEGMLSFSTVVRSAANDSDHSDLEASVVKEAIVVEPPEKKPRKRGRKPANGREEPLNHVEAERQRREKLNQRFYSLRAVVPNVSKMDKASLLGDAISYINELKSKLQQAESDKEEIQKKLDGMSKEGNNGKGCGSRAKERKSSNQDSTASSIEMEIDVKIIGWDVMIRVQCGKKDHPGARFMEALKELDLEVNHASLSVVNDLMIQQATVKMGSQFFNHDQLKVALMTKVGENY

T1: nYFP-ERF109 (Arabidopsis thaliana) (UniProt Q9SZ06)
T1 sequence: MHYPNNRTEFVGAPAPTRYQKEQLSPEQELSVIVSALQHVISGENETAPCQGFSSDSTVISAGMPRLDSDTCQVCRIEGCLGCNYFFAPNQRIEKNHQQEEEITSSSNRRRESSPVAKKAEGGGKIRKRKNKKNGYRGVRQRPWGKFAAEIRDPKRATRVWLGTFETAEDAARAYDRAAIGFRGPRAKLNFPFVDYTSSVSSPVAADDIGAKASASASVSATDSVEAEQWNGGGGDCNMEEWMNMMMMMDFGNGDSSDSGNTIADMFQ

B1: MYB34 fused to the GAL4 AD (protein, UniProt O64399 1-295)
chain: MVRTPCCKEEGIKKGAWTPEEDQKLIAYLHLHGEGGWRTLPEKAGLKRCGKSCRLRWANYLRPDIKRGEFSPEEDDTIIKLHALKGNKWAAIATSLAGRTDNEIKNYWNTNLKKRLKQKGIDAITHKPINSTGQTGFEPKVNKPVYSSGSARLLNRVASKYAVELNRDLLTGIISGNSTVAEDSQNSGDVDSPTSTLLNKMAATSVLINTTTTYSGFSDNCSFTDEFNEFFNNEEISDIYTTVDNFGFMEELKSILSYGDASAGVIENSPEVNVADAMEFIDSWNEDDNMVGVFV
B2: MYB51 fused to the GAL4 AD (protein, UniProt O49782 1-352)
chain: MVRTPCCKAELGLKKGAWTPEEDQKLLSYLNRHGEGGWRTLPEKAGLKRCGKSCRLRWANYLRPDIKRGEFTEDEERSIISLHALHGNKWSAIARGLPGRTDNEIKNYWNTHIKKRLIKKGIDPVTHKGITSGTDKSENLPEKQNVNLTTSDHDLDNDKAKKNNKNFGLSSASFLNKVANRFGKRINQSVLSEIIGSGGPLASTSHTTNTTTTSVSVDSESVKSTSSSFAPTSNLLCHGTVATTPVSSNFDVDGNVNLTCSSSTFSDSSVNNPLMYCDNFVGNNNVDDEDTIGFSTFLNDEDFMMLEESCVENTAFMKELTRFLHEDENDVVDVTPVYERQDLFDEIDNYFG

Columns and labels:
[1] = molecular target: JAZ12 fused to the GAL4 BD (Arabidopsis thaliana) (UniProt Q9C5K8); test: two-hybrid
[2] = molecular target: JAZ6 fused to the GAL4 BD (Arabidopsis thaliana) (UniProt Q9C9E3); test: two-hybrid
[3] = molecular target: JAZ2 fused to the GAL4 BD (Arabidopsis thaliana) (UniProt Q9S7M2); test: two-hybrid
[4] = molecular target: T1, nYFP-ERF109 (Arabidopsis thaliana); test: split reporter
[5] = molecular target: JAZ5 fused to the GAL4 BD (Arabidopsis thaliana); test: two-hybrid
[6] = molecular target: JAZ1 fused to the GAL4 BD (Arabidopsis thaliana) (UniProt Q9LMA8); test: two-hybrid

Row | Molecule | binding [1] | binding [2] | binding [3] | binding [4] | binding [5] | binding [6]
1 | MYC3 fused to the GAL4 AD (from UniProt Q9FIP9 1-592) | binds | binds | binds |  |  | 
2 | BPM1 (BiFC fusion) (Arabidopsis thaliana) |  |  |  | binds |  | 
3 | B1 | no binding | no binding | no binding |  | no binding | no binding
4 | B2 | no binding | no binding | no binding |  | no binding | no binding
